From PubChem BioAssay AID2685 (National Center for Advancing Translational Sciences (NCATS), 2010)
The list shows a part of the results. The main result of the screen is listed elsewhere. These columns were measured beside it and carry no call. Most of these compounds were active or inconclusive in the main read-out, so they are no random draw. Potencies come from curve fits of mixed quality, noted in brackets.

Test: qHTS Assay for Lipid Storage Modulators in Drosophila S3 Cells;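 for cell number change: cells counted by Cell Tracker Red CMTPX staining in the red channel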
Conditions: BODIPY lipid droplet fluorescence, 18-24 h; for cell number change: measured here: cell count max response, cells fed with added oleic acid
Summary of the method: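 Laser-scanning cytometry quantifies lipid droplet accumulation (500–530 nm total intensity; droplet/cell object ratio) in oleic acid-fed (400 uM added) Drosophila S3 cells treated with a concentration series. 20 uM Triacsin C defined 100% inhibition.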

[1] = measured here: lipid fluorescence (Fed channel) AC50, cells fed with added oleic acid
[2] = measured here: cell number channel AC50, cells fed with added oleic acid

SMILES | cell number change | AC50 [1] | AC50 [2]
CCO[C@H]1OC(C(=O)N2CCN(Cc3ccc4c(c3)OCO4)CC2)=C[C@@H](C2CCCCC2)[C@@H]1CCCO | -20.6% | 32600 nM [falling, single point] | –
COc1ccc(CNC(=O)CCS(=O)(=O)Cc2cccc(Cl)c2)c(OC)c1 | -7.44% | 6510 nM [rising, single point] | –
CC(C)(C)OC(=O)N1CCC(CC2CC(c3ccc(Cl)cc3)=NO2)(C(=O)NCC2CCCCC2)CC1 (configuration not stated) | 39.8% | 3660 nM [falling, full curve] | 2060 nM [rising, partial curve, poor fit]
O=C(CCC(=O)c1ccc(F)cc1)Nc1cc(Cl)cc(Cl)c1 | 31.9% | – | 259 nM [rising, full curve]
O=C(O)c1ccc(CSc2nnc(-c3ccccc3)n2-c2ccccc2)cc1 | -35.9% | 6510 nM [falling, full curve, poor fit] | 7310 nM [falling, partial curve, poor fit]
O=[N+]([O-])c1ccc(/C=N/n2c(C3CCCCC3)n[nH]c2=S)cc1 | -0.297% | 103 nM [falling, full curve, poor fit] | 820 nM [rising, full curve]
Cc1cc(/C=C2\SC(=S)NC2=O)c(C)n1-c1ccc(O)cc1 | 9.99% | 92 nM [rising, full curve, poor fit] | –
Cc1ccc2nc(NC(=O)c3ccc4ncsc4c3)sc2c1 | -50.8% | 18400 nM [falling, single point] | 16400 nM [falling, single point]
O=C(N/N=C/c1ccc2cccc(OCc3ccccc3)c2n1)c1ccc(Cl)cc1 | – | – | 580 nM [rising, full curve]
COc1ccc(CCNC(=O)c2cccc(S(=O)(=O)N3CCCCC3)c2)cc1 | 19.4% | 4.61 nM [rising, full curve, poor fit] | 4.61 nM [rising, full curve, poor fit]
COc1ccc(C(=O)C[n+]2cccc3cc(OC)ccc32)cc1 | – | – | 2590 nM [rising, partial curve, poor fit]
N#Cc1ccc[n+](CC(=O)c2ccc(Cl)cc2)c1 | -0.552% | – | –
Cc1ccc(C)c(OCCCC(=O)Nc2ccc(N3CCOCC3)cc2)c1 | 105% | – | 20600 nM [rising, single point]
COc1cccc(OC)c1C(=O)Nc1ccc([N+](=O)[O-])cn1 | -8.76% | – | 2910 nM [rising, single point]
Cc1c(C(=O)N2CCN(C(=O)c3ccco3)CC2)sc2nc(-c3ccc(F)cc3)cn12 | – | – | 651 nM [rising, full curve]
Cc1ccc(OCC(=O)N2CCC(N3CC(C)CC(C)C3)CC2)cc1 (configuration not stated) | 19.1% | 92 nM [rising, full curve, poor fit] | –
O=C(COc1ccccc1[N+](=O)[O-])Nc1cccc(Cl)c1N1CCOCC1 | -31% | 14600 nM [falling, partial curve, poor fit] | 23100 nM [falling, single point]
CC(=O)c1cc(CN2CCC(n3nccc3NC(=O)c3ccccc3)CC2)cs1 | – | 4110 nM [rising, single point] | –
Cc1nnc(NC(=O)c2cc(-c3ccncc3)nc3c(C)cccc23)s1 | 23.8% | 6510 nM [falling, single point] | –
CCN(CC)CCNc1ccc2nnc(CCNS(=O)(=O)c3ccc(C)cc3)n2n1 | -10.3% | 146 nM [falling, full curve, poor fit] | –

Arranged by molecular weight (rising): some entries from above
SMILES | cell number change | AC50 [1] | AC50 [2]
COc1cccc(OC)c1C(=O)Nc1ccc([N+](=O)[O-])cn1 | -8.76% | – | 2910 nM [rising, single point]
O=C(O)c1ccc(CSc2nnc(-c3ccccc3)n2-c2ccccc2)cc1 | -35.9% | 6510 nM [falling, full curve, poor fit] | 7310 nM [falling, partial curve, poor fit]
COc1ccc(CNC(=O)CCS(=O)(=O)Cc2cccc(Cl)c2)c(OC)c1 | -7.44% | 6510 nM [rising, single point] | –

Carrying on:

SMILES | cell number change | AC50 [1] | AC50 [2]
O=C(Nc1cccc(-c2nnc(-c3ccco3)o2)c1)C(c1ccccc1)c1ccccc1 | 108% | – | 13000 nM [rising, partial curve]
COc1ccc(OC)c(NC(=O)CSc2sc3c(O)cc(=O)[nH]c3c2C#N)c1 | 8.97% | – | –
O=CN1N=C(c2ccccc2)CC1c1ccccc1[N+](=O)[O-] (configuration not stated) | -50.7% | 3660 nM [rising, full curve, poor fit] | 164 nM [falling, full curve, poor fit]
O=C(Nc1ccc(N2CCN(C(=O)c3ccco3)CC2)cc1)c1ccc([N+](=O)[O-])cc1Cl | -12.2% | 1160 nM [rising, partial curve] | –
Cc1ccc(CNC(=O)C2CCN(S(=O)(=O)N3CC(C)CC(C)C3)CC2)cc1 (configuration not stated) | – | 116 nM [falling, single point] | –
O=C(O)c1cc(C2CC2)nc2ccccc12 | 34.1% | 651 nM [rising, full curve, poor fit] | 731 nM [rising, full curve, poor fit]
COc1ccc(OCCC(=O)c2ccc(OC)cc2)cc1 | 12.4% | – | –
Cc1c(C(=O)N2CCc3ccccc3C2)oc2ccc(S(=O)(=O)N3CCCCCC3)cc12 | 24.6% | 3260 nM [rising, full curve] | –
Cc1csc(=O)n1CCC(=O)OCC(=O)NCc1ccc(Cl)cc1Cl | -5% | – | –
CC(=O)Oc1ccc(C)cc1N1C(=O)c2ccc(C(=O)O)cc2C1=O | 18.1% | 731 nM [rising, partial curve, poor fit] | –
O=C(CCS(=O)(=O)c1cccs1)Nc1ccc(C(=O)NC2CCN(Cc3ccccc3)CC2)cc1 | -21.7% | 6510 nM [falling, single point] | 2310 nM [falling, partial curve, poor fit]
Cc1ccccc1Oc1ncnc2oc(-c3ccccc3)cc12 | 46.3% | 6510 nM [rising, single point] | 29100 nM [rising, single point]
CCCc1cc(=O)oc2cc(OCC(=O)Nc3cc(C)on3)ccc12 | 15.5% | 32600 nM [rising, single point] | –
NC(=O)C1CCN(C(=O)c2cnn(-c3ccccc3)c2NC(=O)c2ccco2)CC1 | 18.9% | – | –
O=C(O)CC(CNS(=O)(=O)c1cccc2nsnc12)c1ccccc1 (configuration not stated) | -26% | 29100 nM [falling, single point] | –
CC(=O)Nc1ccc(S(=O)(=O)N2CCC(C(=O)NCCC(=O)Nc3ccccc3)CC2)cc1 | -4.89% | – | –
NC1=NC(c2ccccc2C(F)(F)F)N(c2ccc(F)c(Cl)c2)C(N)=N1 (configuration not stated) | -17% | – | –
COc1ccc(/C=C/C(=O)N2CCC(C(N)=O)CC2)cc1S(=O)(=O)N1CCOCC1 | -106% | 29100 nM [falling, single point] | 29100 nM [falling, single point]
O=C(O)C1CCCCC1C(=O)NCCc1c[nH]c2ccccc12 (configuration not stated) | -74.1% | – | 23100 nM [falling, partial curve, poor fit]
CCCc1nn2c(=O)cc(CSCC(=O)Nc3ccccc3OC)nc2s1 | -22.1% | – | –

SMILES | cell number change | AC50 [1] | AC50 [2]
O=C(Cn1ncc2c(=O)oc3ccccc3c21)N1CCN(c2ccccn2)CC1 | -21.3% | 5.17 nM [falling, full curve, poor fit] | –
N#CCCn1cc(C(CC(=O)c2ccc(Br)cc2)C(=O)O)c2ccccc21 (configuration not stated) | -7.89% | – | –
O=C(Nc1ccc(Oc2ccc(Cl)cc2)cc1)c1ncn[nH]1 | 0.498% | 820 nM [rising, full curve, poor fit] | –
CC1CC(C)CN(C(=O)c2ccc(-c3ccc([N+](=O)[O-])cc3)o2)C1 (configuration not stated) | 50% | 11600 nM [falling, partial curve] | 2060 nM [rising, full curve]
COc1ccccc1-n1nc(C)c(-c2ccccc2)c1N | – | 2910 nM [rising, single point] | –
Nc1nc2nc(-c3ccc(Cl)cc3)cc(C(F)(F)F)n2n1 | – | – | 6510 nM [rising, single point]
CCCS(=O)c1nc(C)cc(C)c1S(C)(=O)=O (configuration not stated) | 18.9% | 4.61 nM [falling, full curve, poor fit] | –
CCCCC(CC)C(=O)NCC(C)NC(=O)C(CC)CCCC (configuration not stated) | – | – | 2910 nM [falling, single point]
O=C(O)CCC(=O)Nc1sc2c(c1C(=O)NCc1ccccc1)CCCC2 | -16.9% | – | –
CCC(C)C(=O)Nc1cc(Cl)ccc1C(=O)O (configuration not stated) | 33.4% | – | 164 nM [rising, full curve]
O=C1OC(Nc2ccccn2)c2ccccc21 (configuration not stated) | -12.5% | 92 nM [falling, full curve, poor fit] | –
CNC(=O)C(=O)NCC1OCCN1S(=O)(=O)c1ccc(OC)c(OC)c1 (configuration not stated) | 14.8% | 4470 nM [rising, single point] | 3980 nM [rising, single point]
Cc1nc(S(=O)(=O)N2CCOCC2)c(C#N)c(C)c1Cl | -8.53% | – | 65.1 nM [falling, full curve, poor fit]
COc1cc(NC(=O)c2ccc(Br)o2)ccc1NC(=O)C(C)C | 32.7% | 1160 nM [rising, single point] | 7310 nM [rising, partial curve, poor fit]
CC(C)C(OC(=O)c1nsc(Cl)c1Cl)C(=O)NCC1CCCO1 (configuration not stated) | 15.8% | 29100 nM [rising, single point] | –
COc1ccc(N=c2scc(C)n2CCCN2CCCC2=O)cc1 | – | 4610 nM [rising, single point] | 6510 nM [rising, single point]
Cc1cc(NC(=O)CSc2nnc(-c3ccc([N+](=O)[O-])cc3)o2)no1 | 1.29% | 517 nM [falling, partial curve] | –
COc1cccc(NC(=O)CN(C)C(=O)c2c(C)nn(-c3ccccc3)c2Cl)c1 | 11.1% | 820 nM [rising, full curve] | –
